This is one part of the list.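 How the source made its calls: active = mitochondrial OCR inhibition above 30% at 1 uM; inactive = 30% or less.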 Many values rest on one well or one pass, so single values are uncertain.
System: Toxoplasma gondii RH tachyzoites
Assay: inhibition of mitochondrial O2 consumption rate (% inhibition (relative to pre-injection OCR and atovaquone/antimycin A control)); higher = stronger ETC inhibition
Settings: 1 µM
[1] = injection port (sequential injection order): B
[2] = injection port (sequential injection order): C
[3] = injection port (sequential injection order): A

SMILES: Cc1ccc(NC(=O)c2nc[nH]c2C(=O)Nc2nc3ccccc3[nH]2)c(C)c1
- inhibition of mitochondrial O2 consumption rate [1]: inactive: -0.296

SMILES: COC(=O)c1cccc2oc(-c3cccc(OC)c3NC(=O)c3cc(-c4ccccc4)on3)nc12
- inhibition of mitochondrial O2 consumption rate [2]: inactive: -21.2

SMILES: Cc1ccc2oc(-c3cc(NC(=O)Cc4ccccc4)ccc3Cl)nc2c1
- inhibition of mitochondrial O2 consumption rate [3]: inactive: 1.27

SMILES: CS(=O)(=O)N1CCC(Cn2nc(Cc3cccc4ccccc34)c3c(N)ncnc32)CC1
- inhibition of mitochondrial O2 consumption rate [2]: inactive: -9.11

SMILES: CCc1c(C)nc(-n2nc(C)cc2NC(=O)c2ccccc2SC)[nH]c1=O
- inhibition of mitochondrial O2 consumption rate [3]: inactive: 0.642

SMILES: Cc1cccc(NC(=O)c2cc(S(=O)(=O)N(C)c3ccc(F)cc3)ccc2Cl)n1
- inhibition of mitochondrial O2 consumption rate [1]: inactive: -3.88

SMILES: O=C([C@@H](c1ccc(Cl)cc1)c1cccnc1)N1CCN(c2ccc(C(F)(F)F)cc2)CC1
- inhibition of mitochondrial O2 consumption rate [1]: inactive: -1.47

SMILES: c1ccc(Oc2ccc(-c3cc(N4CCNCC4)[nH]n3)cc2)cc1
- inhibition of mitochondrial O2 consumption rate [2]: inactive: -3.18

SMILES: CC(=O)NC[C@H]1CN(c2ccc(N3CCSCC3)c(F)c2)C(=O)O1
- inhibition of mitochondrial O2 consumption rate [3]: inactive: -1.02

SMILES: CCN(CC)CCCN1CCN(C(=O)c2cccc(-c3noc(C(F)(F)F)n3)c2)CC1
- inhibition of mitochondrial O2 consumption rate [2]: inactive: -24.3

SMILES: CC(Oc1cccc(Cl)c1)C(=O)Nc1ccc2oc(-c3ccncc3)nc2c1 (configuration not stated)
- inhibition of mitochondrial O2 consumption rate [3]: inactive: 2.77

SMILES: COc1cc(NC(=O)Cc2nn(C)c(=O)c3ccccc23)ccc1Cl
- inhibition of mitochondrial O2 consumption rate [2]: inactive: -3.01

SMILES: Cc1cnc(CCNC(=O)c2cc(-c3ccc(Cl)cc3)cs2)[nH]1
- inhibition of mitochondrial O2 consumption rate [3]: inactive: -1.41

SMILES: CCOc1ccc(OCC(=O)Nc2cc(C)cc(C)c2)cc1
- inhibition of mitochondrial O2 consumption rate [1]: inactive: -7.33

SMILES: COc1ccc(-c2cnc3ccc(NCc4ccc(S(N)(=O)=O)cc4)nn23)cn1
- inhibition of mitochondrial O2 consumption rate [1]: inactive: -1.6

SMILES: Cc1ccccc1C(=O)N1N=C(Nc2ccccc2)SC1(C)C
- inhibition of mitochondrial O2 consumption rate [1]: inactive: -7.46

SMILES: CC(Oc1ccccc1)C(=O)Nc1nc(-c2ccccn2)cs1 (configuration not stated)
- inhibition of mitochondrial O2 consumption rate [2]: inactive: 5.27

SMILES: c1ccc(C[C@@H]2CN(c3nccc(Oc4ccc(-n5ccnc5)cc4)n3)CCN2)cc1
- inhibition of mitochondrial O2 consumption rate [2]: inactive: -13.8

SMILES: Cc1cc(Nc2ccc(C(F)(F)F)cc2)n2ccnc2n1
- inhibition of mitochondrial O2 consumption rate [1]: inactive: 1.44

SMILES: CC(c1cc(Cl)cc(Cl)c1)N(C)c1ncc2c(N)nc(N)nc2n1 (configuration not stated)
- inhibition of mitochondrial O2 consumption rate [2]: inactive: -13.6

SMILES: Cc1ccc(-c2nc(CN(Cc3ccccn3)C(C)C)cs2)o1
- inhibition of mitochondrial O2 consumption rate [2]: inactive: -18.2

SMILES: O=C(NC1CCN(c2ccnc3ccccc23)C1)c1cccc(C(F)(F)F)c1 (configuration not stated)
- inhibition of mitochondrial O2 consumption rate [3]: inactive: 1.61
